Measured values reported in the supplement of paper PMC4807443.
Structures can show the parent of a compound that is named as a salt. This is one part of the list. The numbers are fractions of the control, whatever unit the source prints. Most values lie at the level of the controls, where differences are scatter.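 A lentiviral reporter stably expressed in MIN6 mouse insulinoma beta cells uses Pdx1 and Ins1 promoters to drive separate nucleus-targeted fluorescent proteins; automated imaging with Hoechst nuclear stain counted cells. Possible hits were drugs shifting Ins1 promoter signal more than two median absolute deviations from DMSO controls, with Pdx1 activity roughly normal.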

The molecules below were run on MIN6 (assay: % Pdx1+ Ins1+ (double-positive, mature) cells relative to DMSO control (fold of DMSO control); higher = more mature Ins1 promoter-active cells). Conditions: 8.5 µM; 48 h; glucose 5 mM.
NCC1(CC(=O)O)CCCCC1 [Gabapentin] was tested, and the “% Pdx1+ Ins1+” value was 1.03. In the case of O=c1cccc2n1C[C@@H]1CNC[C@H]2C1 [Cytisine (-)], the “% Pdx1+ Ins1+” value is reported as 0.841. In the case of CCOC(=O)c1cncn1[C@H](C)c1ccccc1 [Etomidate], the “% Pdx1+ Ins1+” value is reported as 0.883. For CN1[C@@H]2C[C@@H](OC(=O)[C@H](CO)c3ccccc3)C[C@H]1[C@@H]1O[C@@H]12 [Scopolamine hydrochloride], the “% Pdx1+ Ins1+” value was 1.04. For N[C@@H]1C[C@H]1c1ccccc1 [Tranylcypromine hydrochloride], the “% Pdx1+ Ins1+” value was 1.1. In the case of COc1cc(C(=O)OC2CC3CCC(C2)N3C)ccc1O (stereo not given) [Fillalbin], the “% Pdx1+ Ins1+” value is reported as 0.824. NCC(CC(=O)O)c1ccc(Cl)cc1 (racemic) [Baclofen (R,S)] was tested, and the “% Pdx1+ Ins1+” value was 1.06. CN[C@@H]1[C@@H](O)[C@@H](O[C@@H]2[C@@H](O)[C@H](O[C@H]3O[C@H](CN)CC[C@H]3N)[C@@H](N)C[C@H]2N)OC[C@]1(C)O.CN[C@@H]1[C@@H](O)[C@@H](O[C@@H]2[C@@H](O)[C@H](O[C@H]3O[C@H]([C@@H](C)N)CC[C@H]3N)[C@@H](N)C[C@H]2N)OC[C@]1(C)O.CN[C@@H]1[C@@H](O)[C@@H](O[C@@H]2[C@@H](O)[C@H](O[C@H]3O[C@H]([C@@H](C)NC)CC[C@H]3N)[C@@H](N)C[C@H]2N)OC[C@]1(C)O [Gentamicine sulfate] was tested, and the “% Pdx1+ Ins1+” value was 1.01. For O=C1CC[C@@]2(O)[C@H]3Cc4ccc(O)c5c4[C@@]2(CCN3CC2CC2)[C@H]1O5 [Naltrexone hydrochloride dihydrate], the “% Pdx1+ Ins1+” value was 1.06. For COc1ccc2c(c1O)-c1c(OC)c(OC)cc3c1[C@H](C2)N(C)CC3 [Isocorydine (+)], the “% Pdx1+ Ins1+” value was 0.891. CN1CCC2(C)c3cc(O)ccc3N(C)C12 (single isomer, unassigned; (-)) [(-)-Eseroline fumarate salt] was tested, and the “% Pdx1+ Ins1+” value was 0.858. In the case of CCN1C[C@]2(C)CC[C@H](O)[C@]34C1[C@@H](C[C@H]23)[C@@]1(O)C[C@H](OC)[C@H]2C[C@@H]4[C@@H]1[C@H]2O [Karakoline], the “% Pdx1+ Ins1+” value is reported as 0.888. With CC(NC(C)(C)C)C(=O)c1cccc(Cl)c1 (stereo not given) [Bupropion hydrochloride] the “% Pdx1+ Ins1+” value was 0.557. With O=c1ccc2cc(O[C@@H]3O[C@H](CO)[C@@H](O)[C@H](O)[C@H]3O)c(O)cc2o1 [Esculin Hydrate] the “% Pdx1+ Ins1+” value was 0.924. In the case of O=c1c2ccccc2[se]n1-c1ccccc1 [Ebselen], the “% Pdx1+ Ins1+” value is reported as 0.817. In the case of CC(=O)O[C@H]1C[C@@H]2CC[C@@H]3[C@H](CC[C@@]4(C)[C@H]3C[C@H]([N+]3(C)CCCCC3)[C@@H]4OC(C)=O)[C@@]2(C)C[C@@H]1[N+]1(C)CCCCC1 [Pancuronium bromide], the “% Pdx1+ Ins1+” value is reported as 0.955. With COc1c2c(cc3c1OCO3)CCN(C)C2 [Hydrocotarnine hydrobromide] the “% Pdx1+ Ins1+” value was 0.865. For C=CCN1CC[C@]23c4c5ccc(O)c4O[C@H]2C(=O)CC[C@@]3(O)[C@H]1C5 [Naloxone hydrochloride], the “% Pdx1+ Ins1+” value was 0.972. C[C@]12C[C@H]3S[C@H]3C[C@@H]1CC[C@@H]1[C@@H]2CC[C@]2(C)[C@@H](O)CC[C@@H]12 [Epitiostanol] was tested, and the “% Pdx1+ Ins1+” value was 0.869. For COP(=O)(OC)C(O)C(Cl)(Cl)Cl (stereo not given) [Trichlorfon], the “% Pdx1+ Ins1+” value was 1.22. With C[C@H]1CC[C@]2(NC1)O[C@H]1C[C@H]3[C@@H]4CC[C@H]5C[C@@H](O)CC[C@]5(C)[C@H]4CC[C@]3(C)[C@H]1[C@@H]2C [Tomatidine] the “% Pdx1+ Ins1+” value was 0.922. With C(#CCN1CCCC1)CN1CCCC1 [Tremorine dihydrochloride] the “% Pdx1+ Ins1+” value was 1.03. In the case of C[C@]12CCC(=O)C=C1C=C[C@@H]1[C@@H]2CC[C@@]2(C)[C@H]1CC[C@@]2(O)CCC(=O)O [Canrenoic acid potassium salt], the “% Pdx1+ Ins1+” value is reported as 1. In the case of C[C@H](N)[C@H](O)c1ccc(O)c(O)c1 [Levonordefrin], the “% Pdx1+ Ins1+” value is reported as 0.746. With CC(C)N(CCC(C(N)=O)(c1ccccc1)c1ccccn1)C(C)C (stereo not given) [Disopyramide] the “% Pdx1+ Ins1+” value was 1.09. CCN1C[C@]2(C)CC[C@H](OC)[C@@]34C1[C@]1(OCO[C@@]15C[C@H](OC)[C@H]1C[C@]3(O)[C@@H]5[C@H]1OC)[C@@H](OC(C)=O)[C@H]24 [Deltaline] was tested, and the “% Pdx1+ Ins1+” value was 0.897. With CC[C@H]1CN2CCc3cc(OC)c(OC)cc3[C@@H]2C[C@@H]1C[C@H]1NCCc2cc(O)c(OC)cc21 [Cephaeline dihydrochloride heptahydrate] the “% Pdx1+ Ins1+” value was 0.745. For CN1[C@@H]2CC[C@H]1C[C@@H](OC(=O)[C@H](CO)c1ccccc1)C2 [Hyoscyamine (L)], the “% Pdx1+ Ins1+” value was 0.873. For COc1ccc(CN2CCNCC2)c(OC)c1OC [Trimetazidine dihydrochloride], the “% Pdx1+ Ins1+” value was 0.963. For CC(C)[N+](C)(CCC(C(N)=O)(c1ccccc1)c1ccccc1)C(C)C [Isopropamide iodide], the “% Pdx1+ Ins1+” value was 0.873. For C/C=C1/C[N+]2(C)CCC34C(=C(C=O)[C@H]1C[C@@H]32)Nc1ccccc14 (stereo not given in full) [Fluorocurarine chloride], the “% Pdx1+ Ins1+” value was 0.848. In the case of C#C[C@]1(O)CC[C@H]2[C@@H]3CCC4=CC(=O)CC[C@]4(C)[C@H]3CC[C@@]21C [Ethisterone], the “% Pdx1+ Ins1+” value is reported as 1.12. For C=C1[C@H]2C[C@@]3([C@@H]1O)[C@@H](C[C@@H]2O)[C@]12[C@@H]4C[C@H]3[C@H]1N(CC)C[C@]4(C)CC[C@@H]2O [Napelline], the “% Pdx1+ Ins1+” value was 0.808. O=c1[nH]c2ccccc2n1CCCN1CCC(n2c(=O)[nH]c3cc(Cl)ccc32)CC1 [Domperidone maleate] was tested, and the “% Pdx1+ Ins1+” value was 0.915. In the case of C[C@]12CC[C@H]3[C@@H](CC[C@]4(O)C[C@@H](O)CC[C@]34C=O)[C@@]1(O)CC[C@@H]2C1=CC(=O)OC1 [Strophanthidin], the “% Pdx1+ Ins1+” value is reported as 0.882. CCN(CC)C(=O)N[C@H]1C=C2c3cccc4[nH]cc(c34)C[C@H]2N(C)C1 [Lisuride (S)(-)] was tested, and the “% Pdx1+ Ins1+” value was 1.08. S=C(NC1CCCCC1)N1CCC(c2cnc[nH]2)CC1 [Thioperamide maleate] was tested, and the “% Pdx1+ Ins1+” value was 0.786. CN1[C@@H]2CCC[C@H]1CC(=O)C2 [Pseudopelletierine hydrochloride] was tested, and the “% Pdx1+ Ins1+” value was 0.925. In the case of NC(N)=NOCC[C@H](N)C(=O)O [Canavanine sulfate monohydrate (L,+)], the “% Pdx1+ Ins1+” value is reported as 0.894. With CCN(CC)C(=O)N[C@@H]1CC2c3cccc4[nH]cc(c34)CC2N(C)C1 (stereo partly drawn) [S(-)-terguride hydrogen maleate] the “% Pdx1+ Ins1+” value was 0.89. For CC1=NCCc2c1[nH]c1cc(O)ccc21 [Harmalol hydrochloride dihydrate], the “% Pdx1+ Ins1+” value was 0.985. C=C[C@H]1CN2CC[C@H]1C[C@H]2[C@H](O)c1ccnc2ccccc12 [(-)-Cinchonidine] was tested, and the “% Pdx1+ Ins1+” value was 0.88. In the case of COc1ccc2c(c1)[C@]13CCCC[C@@H]1[C@H](C2)N(C)CC3 [Dextromethorphan hydrobromide monohydrate], the “% Pdx1+ Ins1+” value is reported as 0.812. C[C@]12CC[C@@H](O)C[C@@H]1CC[C@@H]1[C@@H]2CC[C@]2(C)C(=O)CC[C@@H]12 [Androsterone] was tested, and the “% Pdx1+ Ins1+” value was 0.94. In the case of CC1=CC(=O)C2=C(C)C[C@H](O)[C@@H]3[C@H](OC(=O)[C@H]3C)[C@H]12 [Austricine], the “% Pdx1+ Ins1+” value is reported as 0.97. With CNCC(O)c1ccc(O)cc1 (racemic) [(+,-)-Synephrine] the “% Pdx1+ Ins1+” value was 0.982. In the case of CC(Cc1ccc(O)cc1)NCC(O)c1cc(O)cc(O)c1 (stereo not given) [Fenoterol hydrobromide], the “% Pdx1+ Ins1+” value is reported as 1.15. C=C[C@H]1CN2CC[C@H]1C[C@@H]2[C@@H](O)c1ccnc2ccccc12 [Cinchonine] was tested, and the “% Pdx1+ Ins1+” value was 0.947. For C=C1[C@@H]2CC[C@H]3[C@]4(C)C[C@H](O[C@@H]5O[C@H](CO)[C@@H](OS(=O)(=O)O)[C@H](OS(=O)(=O)O)[C@H]5OC(=O)CC(C)C)C[C@@H](C(=O)O)[C@H]4CC[C@]3(C2)[C@@H]1O [Atractyloside potassium salt], the “% Pdx1+ Ins1+” value was 0.968. In the case of C1CCc2nnnn2CC1 [Pentylenetetrazole], the “% Pdx1+ Ins1+” value is reported as 1.06. For COc1cc2c(cc1O)[C@@H]1Cc3ccc(OC)c(O)c3CN1CC2 [Scoulerine], the “% Pdx1+ Ins1+” value was 0.776. With COc1cc2c3cc1Oc1cc(ccc1O)C[C@@H]1c4c(cc(OC)c(O)c4Oc4cccc(c4)C[C@@H]3N(C)CC2)CC[N+]1(C)C [Tubocurarine chloride pentahydrate (+)] the “% Pdx1+ Ins1+” value was 0.857. COc1ccc2[nH]c3c(c2c1)CCN=C3C [Methoxy-6-harmalan] was tested, and the “% Pdx1+ Ins1+” value was 0.741. In the case of CC(C)[C@@]1(NC(=O)[C@@H]2C[C@@H]3c4cccc5[nH]cc(c45)C[C@H]3N(C)C2)O[C@@]2(O)[C@@H]3CCCN3C(=O)[C@H](Cc3ccccc3)N2C1=O [Dihydroergocristine mesylate], the “% Pdx1+ Ins1+” value is reported as 0.817. With O=C1C=C2C=C[C@@H]3C[C@@]2(O1)[C@H]1CCCCN31 [Securinine] the “% Pdx1+ Ins1+” value was 1.07. With COc1ccn(C)c(=O)c1C#N [Ricinine] the “% Pdx1+ Ins1+” value was 0.871. C[C@]12CCC(=O)C=C1CC[C@@H]1[C@@H]2C(=O)C[C@]2(C)C(=O)CC[C@@H]12 [Adrenosterone] was tested, and the “% Pdx1+ Ins1+” value was 0.923. For CC[C@H](C)[C@H]1O[C@]2(C=C[C@@H]1C)C[C@@H]1C[C@@H](C/C=C(\C)[C@@H](O[C@H]3C[C@H](OC)[C@@H](O[C@H]4C[C@H](OC)[C@@H](O)[C@H](C)O4)[C@H](C)O3)[C@@H](C)/C=C/C=C3\CO[C@@H]4[C@H](O)C(C)=C[C@@H](C(=O)O1)[C@]34O)O2.CO[C@H]1C[C@H](O[C@H]2[C@H](C)O[C@@H](O[C@@H]3/C(C)=C/C[C@@H]4C[C@@H](C[C@]5(C=C[C@H](C)[C@@H](C(C)C)O5)O4)OC(=O)[C@@H]4C=C(C)[C@@H](O)[C@H]5OC/C(=C\C=C\[C@@H]3C)[C@]54O)C[C@@H]2OC)O[C@@H](C)[C@@H]1O [Avermectin B1], the “% Pdx1+ Ins1+” value was 0.571. In the case of CN(C)Cc1c[nH]c2ccccc12 [Gramine], the “% Pdx1+ Ins1+” value is reported as 0.961. In the case of C[N+]1(C)CCOC(O)(c2ccc(-c3ccc(C4(O)C[N+](C)(C)CCO4)cc3)cc2)C1 (stereo not given) [Hemicholinium bromide], the “% Pdx1+ Ins1+” value is reported as 1.01.
